These results are taken from the supplement of paper PMC6411743.

Sequences of proteins named here, by UniProt entry; tags and fusion partners are left off. A change or cut given only in a name is not applied to a line headed by its entry.
UniProt Q9Y587: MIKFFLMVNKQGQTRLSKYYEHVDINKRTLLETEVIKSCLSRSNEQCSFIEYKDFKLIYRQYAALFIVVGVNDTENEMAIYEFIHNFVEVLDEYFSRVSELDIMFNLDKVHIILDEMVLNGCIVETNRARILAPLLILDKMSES
UniProt P50579: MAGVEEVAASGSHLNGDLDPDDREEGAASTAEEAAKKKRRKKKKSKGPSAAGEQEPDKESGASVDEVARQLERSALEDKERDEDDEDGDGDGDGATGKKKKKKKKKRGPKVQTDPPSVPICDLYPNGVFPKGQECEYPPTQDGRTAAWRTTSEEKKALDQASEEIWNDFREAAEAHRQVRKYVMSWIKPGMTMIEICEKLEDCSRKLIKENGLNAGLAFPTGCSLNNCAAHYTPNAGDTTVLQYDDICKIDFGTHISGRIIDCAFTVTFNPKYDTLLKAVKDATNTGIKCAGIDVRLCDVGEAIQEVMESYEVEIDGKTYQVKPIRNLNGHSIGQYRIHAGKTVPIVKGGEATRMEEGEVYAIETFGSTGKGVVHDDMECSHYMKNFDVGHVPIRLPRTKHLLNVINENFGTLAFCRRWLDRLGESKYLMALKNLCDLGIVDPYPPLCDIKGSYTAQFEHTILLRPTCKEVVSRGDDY
UniProt Q9Y3C0: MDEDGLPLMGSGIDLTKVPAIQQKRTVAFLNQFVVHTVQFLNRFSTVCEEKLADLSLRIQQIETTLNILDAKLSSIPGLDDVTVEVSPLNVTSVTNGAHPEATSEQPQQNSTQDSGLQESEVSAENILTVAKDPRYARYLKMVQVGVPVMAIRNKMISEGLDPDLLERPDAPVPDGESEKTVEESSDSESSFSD
UniProt P08133: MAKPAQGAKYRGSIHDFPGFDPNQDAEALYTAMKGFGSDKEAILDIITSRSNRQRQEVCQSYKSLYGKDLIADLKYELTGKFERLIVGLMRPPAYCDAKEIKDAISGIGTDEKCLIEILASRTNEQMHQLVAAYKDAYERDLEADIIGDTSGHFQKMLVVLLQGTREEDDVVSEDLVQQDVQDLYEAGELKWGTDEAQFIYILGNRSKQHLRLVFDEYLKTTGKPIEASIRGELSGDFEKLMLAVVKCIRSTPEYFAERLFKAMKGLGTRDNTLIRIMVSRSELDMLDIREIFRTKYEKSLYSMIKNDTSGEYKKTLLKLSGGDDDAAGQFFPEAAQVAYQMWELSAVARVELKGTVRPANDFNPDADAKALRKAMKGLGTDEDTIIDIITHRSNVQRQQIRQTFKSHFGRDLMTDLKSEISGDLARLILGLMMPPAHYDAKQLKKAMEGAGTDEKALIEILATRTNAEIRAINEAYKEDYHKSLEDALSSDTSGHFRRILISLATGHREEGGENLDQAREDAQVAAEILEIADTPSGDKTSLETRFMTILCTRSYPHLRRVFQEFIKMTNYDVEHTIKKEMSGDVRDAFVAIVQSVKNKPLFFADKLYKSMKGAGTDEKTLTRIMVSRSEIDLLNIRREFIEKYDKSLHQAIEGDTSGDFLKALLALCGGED
UniProt Q99700, whole entry: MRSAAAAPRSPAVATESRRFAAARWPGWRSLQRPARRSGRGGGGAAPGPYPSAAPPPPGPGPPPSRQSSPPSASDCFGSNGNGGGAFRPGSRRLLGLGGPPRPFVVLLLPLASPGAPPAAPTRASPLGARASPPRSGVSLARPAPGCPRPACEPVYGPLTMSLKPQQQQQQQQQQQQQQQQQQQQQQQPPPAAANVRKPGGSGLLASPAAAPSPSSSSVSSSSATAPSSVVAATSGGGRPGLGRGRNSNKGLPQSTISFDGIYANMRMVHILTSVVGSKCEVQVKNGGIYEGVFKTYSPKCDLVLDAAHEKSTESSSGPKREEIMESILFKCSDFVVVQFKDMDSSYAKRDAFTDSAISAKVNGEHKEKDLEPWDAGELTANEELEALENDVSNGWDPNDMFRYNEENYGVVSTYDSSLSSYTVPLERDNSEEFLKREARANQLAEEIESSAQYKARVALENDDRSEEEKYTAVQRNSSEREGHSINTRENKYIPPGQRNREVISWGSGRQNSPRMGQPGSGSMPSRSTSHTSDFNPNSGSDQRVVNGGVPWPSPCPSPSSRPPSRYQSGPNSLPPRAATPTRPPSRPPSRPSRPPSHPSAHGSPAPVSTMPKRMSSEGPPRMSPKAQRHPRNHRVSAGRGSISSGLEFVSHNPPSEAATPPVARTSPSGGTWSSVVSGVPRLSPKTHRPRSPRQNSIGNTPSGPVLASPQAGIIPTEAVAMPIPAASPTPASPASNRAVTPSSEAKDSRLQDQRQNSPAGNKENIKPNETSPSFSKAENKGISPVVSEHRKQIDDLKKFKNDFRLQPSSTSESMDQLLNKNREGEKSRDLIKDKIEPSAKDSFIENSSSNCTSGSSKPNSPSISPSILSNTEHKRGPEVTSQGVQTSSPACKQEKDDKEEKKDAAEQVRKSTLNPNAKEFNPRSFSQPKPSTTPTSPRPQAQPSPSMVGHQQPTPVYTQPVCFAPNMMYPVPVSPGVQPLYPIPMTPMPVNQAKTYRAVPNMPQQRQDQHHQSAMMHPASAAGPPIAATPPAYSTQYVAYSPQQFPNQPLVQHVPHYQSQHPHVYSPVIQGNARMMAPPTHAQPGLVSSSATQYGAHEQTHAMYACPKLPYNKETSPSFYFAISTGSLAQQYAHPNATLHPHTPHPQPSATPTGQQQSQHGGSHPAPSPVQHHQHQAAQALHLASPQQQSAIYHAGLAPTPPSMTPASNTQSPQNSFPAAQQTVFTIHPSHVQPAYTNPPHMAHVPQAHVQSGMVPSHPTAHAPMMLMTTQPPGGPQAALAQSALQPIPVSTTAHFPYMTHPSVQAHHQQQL
UniProt P15586: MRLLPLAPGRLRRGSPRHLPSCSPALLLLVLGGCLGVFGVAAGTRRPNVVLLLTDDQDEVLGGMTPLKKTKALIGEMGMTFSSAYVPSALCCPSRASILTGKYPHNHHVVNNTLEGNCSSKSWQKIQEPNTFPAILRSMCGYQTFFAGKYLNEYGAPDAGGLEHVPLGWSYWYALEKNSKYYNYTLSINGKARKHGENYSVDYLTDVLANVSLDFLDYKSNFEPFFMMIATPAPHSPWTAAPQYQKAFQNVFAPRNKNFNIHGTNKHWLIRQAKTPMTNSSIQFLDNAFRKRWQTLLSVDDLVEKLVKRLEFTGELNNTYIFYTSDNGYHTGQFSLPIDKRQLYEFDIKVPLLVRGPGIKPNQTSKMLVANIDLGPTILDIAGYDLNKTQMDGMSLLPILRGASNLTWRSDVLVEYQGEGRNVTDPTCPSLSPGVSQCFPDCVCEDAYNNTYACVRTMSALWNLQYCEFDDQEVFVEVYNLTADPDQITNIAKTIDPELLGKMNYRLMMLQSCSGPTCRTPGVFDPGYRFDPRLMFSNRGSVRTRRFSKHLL
UniProt Q9Y2W6: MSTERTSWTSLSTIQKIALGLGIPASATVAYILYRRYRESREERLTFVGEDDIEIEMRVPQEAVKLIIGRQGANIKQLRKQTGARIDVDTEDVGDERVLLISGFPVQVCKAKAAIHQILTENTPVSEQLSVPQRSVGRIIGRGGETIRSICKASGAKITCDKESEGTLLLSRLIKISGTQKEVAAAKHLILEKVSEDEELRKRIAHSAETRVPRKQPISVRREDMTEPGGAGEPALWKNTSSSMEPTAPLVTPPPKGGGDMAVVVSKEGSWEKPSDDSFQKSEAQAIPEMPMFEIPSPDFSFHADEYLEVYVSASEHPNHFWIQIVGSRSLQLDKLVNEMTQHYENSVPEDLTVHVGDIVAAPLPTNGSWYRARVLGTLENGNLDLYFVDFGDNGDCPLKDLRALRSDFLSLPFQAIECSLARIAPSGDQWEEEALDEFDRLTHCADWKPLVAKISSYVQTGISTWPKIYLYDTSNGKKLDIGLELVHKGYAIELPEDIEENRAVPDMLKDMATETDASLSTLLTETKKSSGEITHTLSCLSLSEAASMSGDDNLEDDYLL
UniProt P29558: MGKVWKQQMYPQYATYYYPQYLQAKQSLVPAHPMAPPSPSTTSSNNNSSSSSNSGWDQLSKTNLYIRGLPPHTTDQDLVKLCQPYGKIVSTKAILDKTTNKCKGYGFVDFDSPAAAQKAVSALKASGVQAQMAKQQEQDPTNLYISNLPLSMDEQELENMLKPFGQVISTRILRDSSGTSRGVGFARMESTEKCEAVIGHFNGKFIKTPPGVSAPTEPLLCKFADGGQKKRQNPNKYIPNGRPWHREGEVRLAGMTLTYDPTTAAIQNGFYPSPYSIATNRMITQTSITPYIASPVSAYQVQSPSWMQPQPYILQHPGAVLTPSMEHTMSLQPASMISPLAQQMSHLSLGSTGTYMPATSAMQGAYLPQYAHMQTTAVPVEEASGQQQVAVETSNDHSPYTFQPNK
UniProt E9PAV3, whole entry, looked up: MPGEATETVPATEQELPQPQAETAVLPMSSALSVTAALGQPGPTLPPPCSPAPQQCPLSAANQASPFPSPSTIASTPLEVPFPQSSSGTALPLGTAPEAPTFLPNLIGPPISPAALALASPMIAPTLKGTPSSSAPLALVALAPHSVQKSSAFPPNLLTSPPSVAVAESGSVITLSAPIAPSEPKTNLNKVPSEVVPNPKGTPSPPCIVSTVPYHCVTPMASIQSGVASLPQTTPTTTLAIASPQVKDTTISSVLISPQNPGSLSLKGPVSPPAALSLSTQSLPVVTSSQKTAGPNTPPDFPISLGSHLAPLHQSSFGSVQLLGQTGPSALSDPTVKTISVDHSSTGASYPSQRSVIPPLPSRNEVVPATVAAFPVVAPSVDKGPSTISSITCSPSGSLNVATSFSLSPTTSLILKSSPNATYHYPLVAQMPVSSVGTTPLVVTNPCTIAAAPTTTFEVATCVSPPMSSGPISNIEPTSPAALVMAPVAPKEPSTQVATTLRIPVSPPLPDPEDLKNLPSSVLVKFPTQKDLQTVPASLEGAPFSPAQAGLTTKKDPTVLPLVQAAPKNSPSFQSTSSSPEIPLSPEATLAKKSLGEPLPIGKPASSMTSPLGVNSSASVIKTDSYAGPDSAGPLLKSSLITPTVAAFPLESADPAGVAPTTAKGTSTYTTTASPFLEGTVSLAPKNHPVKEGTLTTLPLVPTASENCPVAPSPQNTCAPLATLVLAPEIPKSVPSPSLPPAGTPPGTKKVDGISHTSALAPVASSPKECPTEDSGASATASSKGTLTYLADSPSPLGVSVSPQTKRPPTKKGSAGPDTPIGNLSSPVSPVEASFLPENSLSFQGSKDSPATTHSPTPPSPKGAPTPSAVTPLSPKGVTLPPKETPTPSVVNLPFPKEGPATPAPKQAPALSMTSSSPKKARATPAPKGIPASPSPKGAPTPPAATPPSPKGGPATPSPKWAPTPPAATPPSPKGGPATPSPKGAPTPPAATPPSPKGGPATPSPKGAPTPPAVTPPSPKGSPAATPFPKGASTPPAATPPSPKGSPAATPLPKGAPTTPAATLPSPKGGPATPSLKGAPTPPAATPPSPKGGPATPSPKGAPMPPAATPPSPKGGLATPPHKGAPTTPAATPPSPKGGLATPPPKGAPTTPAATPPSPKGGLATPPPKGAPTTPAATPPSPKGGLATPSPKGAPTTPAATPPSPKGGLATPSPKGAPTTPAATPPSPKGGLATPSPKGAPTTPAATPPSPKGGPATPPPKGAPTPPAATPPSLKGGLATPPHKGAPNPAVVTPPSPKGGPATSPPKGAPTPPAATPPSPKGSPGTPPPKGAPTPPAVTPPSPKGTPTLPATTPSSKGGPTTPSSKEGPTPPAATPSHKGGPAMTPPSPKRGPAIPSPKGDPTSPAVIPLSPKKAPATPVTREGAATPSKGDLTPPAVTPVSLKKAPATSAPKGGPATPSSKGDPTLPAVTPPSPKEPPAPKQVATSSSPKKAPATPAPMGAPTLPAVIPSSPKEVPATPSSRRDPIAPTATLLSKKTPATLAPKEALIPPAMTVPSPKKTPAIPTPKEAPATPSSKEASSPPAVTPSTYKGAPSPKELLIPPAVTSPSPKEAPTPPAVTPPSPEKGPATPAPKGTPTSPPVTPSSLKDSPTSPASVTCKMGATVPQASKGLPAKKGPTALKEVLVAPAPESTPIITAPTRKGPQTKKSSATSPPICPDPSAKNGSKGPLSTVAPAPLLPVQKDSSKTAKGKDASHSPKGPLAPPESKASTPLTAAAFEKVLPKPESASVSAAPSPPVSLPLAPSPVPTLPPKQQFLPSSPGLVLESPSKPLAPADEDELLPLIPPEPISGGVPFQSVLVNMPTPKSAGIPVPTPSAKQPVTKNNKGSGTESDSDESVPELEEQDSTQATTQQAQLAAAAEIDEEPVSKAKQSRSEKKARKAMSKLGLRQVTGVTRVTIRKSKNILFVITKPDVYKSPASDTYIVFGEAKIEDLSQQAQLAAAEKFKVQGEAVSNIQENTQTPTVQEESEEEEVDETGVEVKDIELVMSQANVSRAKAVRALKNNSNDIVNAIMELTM
UniProt P63027, whole entry, looked up: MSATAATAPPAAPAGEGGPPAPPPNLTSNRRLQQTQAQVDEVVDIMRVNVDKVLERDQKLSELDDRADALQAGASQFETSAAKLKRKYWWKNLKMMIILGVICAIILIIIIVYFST

± gives the standard deviation of the averaged measurements. The entries are a selection whose mix differs from that of the whole data set. Small differences around the control level are noise.

Compound in this assay: Nc1ncnc2c1ncn2[C@@H]1O[C@H](COP(=O)(O)OP(=O)(O)OP(=O)(O)O)[C@@H](O)[C@H]1O [adenosine triphosphate]
Kind of assay: NP40-soluble protein abundance relative to vehicle (solubility fold change) (ratio); higher = more soluble protein in presence of ATP. Summed up: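 Crude Jurkat lysate, prepared by Dounce homogenisation, was exposed to eight concentrations from 0.1 to 10 mM for 10 min at room temperature and then 3 min at 37 °C. Solubilisation used 0.8% NP40 with benzonase for 60 min at 4 °C, followed by ultracentrifugation and TMT labelling of the supernatant for LC-MS/MS. After vsn normalisation of intensities, each value is the fold change against the detergent-processed vehicle within each replicate, across three independent experiments.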

For the target “F8W6G1 and related entries (UniProt Q9UHY1)”, the NP40-soluble protein abundance is, setting by setting: (concentration: 0.1mM) 0.9933 ± 0.0026; (concentration: 0.5mM) 1 ± 0.029.
In the same order, the values of “F8W6N3 and related entries (UniProt Q92560)” are 0.963 ± 0.043 and 1.03 ± 0.074.
In the same order, the values of “F6V2D4 and related entries (UniProt O00214)” are 0.98 ± 0.026 and 1.01 ± 0.057.
In the same order, the values of “E9PGT3 and related entries (UniProt Q15418)” are 1.05 ± 0.1 and 1.07 ± 0.098.
With “G3V3X7 and related entries (UniProt Q9Y587)”, the NP40-soluble protein abundance by setting is: (concentration: 0.1mM) 1.05 ± 0.08; (concentration: 0.5mM) 1.09 ± 0.12.
Regarding “E9PLY5 and related entries (UniProt Q9UPN3+H3BQK9+H3BPE1+E9PLY5)”, the NP40-soluble protein abundance (concentration: 0.1mM) stood at 1.012 ± 0.0078 and the NP40-soluble protein abundance (concentration: 0.5mM) was determined as 1.03 ± 0.047.
In the same order, the values of “E9PEJ6 and related entries (UniProt P98196)” are 1.06 ± 0.071 and 0.961 ± 0.03.
Taken in the same sequence, the figures for “F8W8I6 and related entries (UniProt P31483)” were 1.03 ± 0.04 and 1.02 ± 0.024.
Taken in the same sequence, the figures for “E5RHG8 and related entries (UniProt Q15369)” were 1.07 ± 0.097 and 0.971 ± 0.064.
With “F5H4V9 and related entries (UniProt Q16342)”, the NP40-soluble protein abundance came out at 0.951 ± 0.05 (concentration: 0.1mM) and 0.962 ± 0.042 (concentration: 0.5mM).
“F8VQZ7 and related entries (UniProt P50579)”: the NP40-soluble protein abundance is, setting by setting: (concentration: 0.1mM) 1.007 ± 0.009; (concentration: 0.5mM) 1.018 ± 0.0041.
For “E9PN30 and related entries (UniProt Q9BQE4)”, the NP40-soluble protein abundance is, setting by setting: (concentration: 0.1mM) 0.943 ± 0.13; (concentration: 0.5mM) 0.939 ± 0.16.
In the same order, the values of “F5H8D7 and related entries (UniProt P18887)” are 1.02 ± 0.041 and 1.07 ± 0.057.
In the same order, the values of “E9PPG8 and related entries (UniProt Q53FT3)” are 1.04 ± 0.15 and 1.01 ± 0.12.
Taken in the same sequence, the figures for “G3V4T2 and related entries (UniProt Q86U42)” were 0.939 ± 0.014 and 0.961 ± 0.064.
Regarding “E9PK80 and related entries (UniProt Q9NTG7)”, the NP40-soluble protein abundance reads like this: (concentration: 0.1mM) 0.921 ± 0.013; (concentration: 0.5mM) 0.92136 ± 0.00017.
For the target “F5GZ97 and related entries (UniProt Q9Y3C0)”, the NP40-soluble protein abundance by setting is: (concentration: 0.1mM) 0.849 ± 0.14; (concentration: 0.5mM) 0.837 ± 0.18.
“F5H070 and related entries (UniProt Q9Y4C1)”: the NP40-soluble protein abundance (concentration: 0.1mM) was found to be 0.995 ± 0.013 and the NP40-soluble protein abundance (concentration: 0.5mM) worked out at 0.995 ± 0.025.
Consider “E9PS00 and related entries (UniProt Q9Y5Q0)”, for which the NP40-soluble protein abundance amounted to 1.08 ± 0.17 (concentration: 0.1mM) and 1.14 ± 0.051 (concentration: 0.5mM).
In the same order, the values of “E7EWP0 and related entries (UniProt O43674)” are 0.905 ± 0.042 and 0.905 ± 0.048.
In the same order, the values of “F5H365 and related entries (UniProt Q15436)” are 1.05 ± 0.075 and 1.02 ± 0.031.
Take “F5H658 and related entries (UniProt Q14562)”: the NP40-soluble protein abundance by setting is: (concentration: 0.1mM) 1.05 ± 0.039; (concentration: 0.5mM) 1.29 ± 0.079.
Regarding “E7EVA0 and related entries (UniProt P27816)”, the NP40-soluble protein abundance runs as follows: (concentration: 0.1mM) 0.963 ± 0.021; (concentration: 0.5mM) 0.974 ± 0.044.
In the same order, the values of “E9PIK4 and related entries (UniProt O14683)” are 1.08 ± 0.22 and 0.975 ± 0.17.
For the target “E9PJZ7 and related entries (UniProt Q13136)”, the NP40-soluble protein abundance came out at 1 ± 0.018 (concentration: 0.1mM) and 0.982 ± 0.024 (concentration: 0.5mM).
Taken in the same sequence, the figures for “E5RK69 and related entries (UniProt P08133)” were 0.985 ± 0.031 and 0.99 ± 0.034.
Take “E7EWW9 and related entries (UniProt P09488)”: the NP40-soluble protein abundance worked out at 0.897 ± 0.072 (concentration: 0.1mM) and 0.932 ± 0.11 (concentration: 0.5mM).
Taken in the same sequence, the figures for “E7EMK3 and related entries (UniProt Q14254)” were 1.02 ± 0.044 and 1.02 ± 0.092.
Taken in the same sequence, the figures for “E5RHA3 and related entries (UniProt Q86X53)” were 0.932 ± 0.089 and 0.9204 ± 0.0029.
Taken in the same sequence, the figures for “F8WB06 and related entries (UniProt Q99700)” were 0.959 ± 0.024 and 0.993 ± 0.067.
“F6S8M0 and related entries (UniProt P15586)”: the NP40-soluble protein abundance stood at 0.909 ± 0.054 (concentration: 0.1mM) and 0.904 ± 0.083 (concentration: 0.5mM).
Taken in the same sequence, the figures for “G3V529 and related entries (UniProt Q9GZR7)” were 0.994 ± 0.013 and 1.03 ± 0.012.
In the same order, the values of “F8WF69 and related entries (UniProt P09496)” are 0.924 ± 0.04 and 0.945 ± 0.05.
Take “E9PL24 and related entries (UniProt Q5VU43)”: the NP40-soluble protein abundance is, setting by setting: (concentration: 0.1mM) 0.999 ± 0.021; (concentration: 0.5mM) 0.962 ± 0.06.
Consider “E9PE19 and related entries (UniProt Q12830)”, for which the NP40-soluble protein abundance is, setting by setting: (concentration: 0.1mM) 0.985 ± 0.02; (concentration: 0.5mM) 1.01 ± 0.079.
“G3V1V0 and related entries (UniProt P60660)”: the NP40-soluble protein abundance (concentration: 0.1mM) came out at 0.863 ± 0.13 and the NP40-soluble protein abundance (concentration: 0.5mM) was determined as 0.863 ± 0.14.
Taken in the same sequence, the figures for “E9PGN6 and related entries (UniProt Q9UI43+E9PGN6)” were 0.986 ± 0.094 and 1.02 ± 0.083.
With “E9PMJ2 and related entries (UniProt Q9BPY3)”, the NP40-soluble protein abundance by setting is: (concentration: 0.1mM) 0.977 ± 0.024; (concentration: 0.5mM) 0.969 ± 0.011.
With “F6TB26 and related entries (UniProt Q9Y2W6)”, the NP40-soluble protein abundance worked out at 0.985 ± 0.022 (concentration: 0.1mM) and 1.01 ± 0.042 (concentration: 0.5mM).
Taken in the same sequence, the figures for “F6Y5H0 and related entries (UniProt P29558)” were 0.977 ± 0.024 and 0.981 ± 0.024.
Taken in the same sequence, the figures for “E9PN89 and related entries (UniProt P11142)” were 0.988 ± 0.036 and 1.02 ± 0.047.
With “E9PAV3-2|E9PAV3 and related entries (UniProt Q13765+H0YHX9+F8VZJ2+E9PAV3)”, the NP40-soluble protein abundance turned out to be 0.952 ± 0.083 (concentration: 0.1mM) and 1.01 ± 0.073 (concentration: 0.5mM).
As for “F8WCA0 and related entries (UniProt P63027+J3QRU4+L7N2F9+F8WCA0)”, the NP40-soluble protein abundance is, setting by setting: (concentration: 0.1mM) 0.839 ± 0.13; (concentration: 0.5mM) 0.844 ± 0.25.
On to “E7EX59 and related entries (UniProt P05166)”, for which the NP40-soluble protein abundance is, setting by setting: (concentration: 0.1mM) 1 ± 0.019; (concentration: 0.5mM) 1.03 ± 0.025; (concentration: 1mM) 0.992 ± 0.049; (concentration: 2mM) 0.971 ± 0.02; (concentration: 4mM) 0.968 ± 0.012; (concentration: 6mM) 0.973 ± 0.046. Further, the NP40-soluble protein abundance was determined as 0.998 ± 0.033 (concentration: 8mM) and 0.979 ± 0.03 (concentration: 10mM).
Consider “E9PLK3 and related entries (UniProt P55786)”, for which the NP40-soluble protein abundance (concentration: 0.1mM) is 1.05 ± 0.09; the NP40-soluble protein abundance (concentration: 0.5mM) is 1.05 ± 0.086; the NP40-soluble protein abundance (concentration: 1mM) came out at 1.02 ± 0.12; the NP40-soluble protein abundance (concentration: 2mM) is 0.997 ± 0.09; the NP40-soluble protein abundance (concentration: 4mM) was 0.976 ± 0.065; the NP40-soluble protein abundance (concentration: 6mM) was determined as 0.927 ± 0.13. For the same target, the NP40-soluble protein abundance turned out to be 0.999 ± 0.073 (concentration: 8mM) and 0.974 ± 0.057 (concentration: 10mM).
